Consider 1 substance from paper PMC3384615.

Results are given in words; binding and its absence hold for the method and conditions named. Binding seen in cells or lysates may run through a third protein. Some entries that bind do so weakly or less than the wild type.

The target in this assay is epidermal growth factor receptor (EGFR), endogenous in YAMC mouse colonocytes (mouse (endogenous in YAMC)) (UniProt Q01279). The assay is described as follows: cross-linking; YAMC cells (untreated, LA or DHA treated, low serum) incubated with 0 or 25 ng/mL EGF on ice for 1 h, then 3 mM BS3 (non-permeable) on ice for 20 min, quenched with 250 mM glycine; lysates Western blotted for EGFR. For orientation: A western blot detects proteins with antibodies after separation by electrophoresis.

As to “epidermal growth factor receptor (EGFR), endogenous in YAMC mouse colonocytes (from UniProt Q01279 25-1210)”, the binding entry was “binds”.
